Experimental data published in article PMC8294589.
No constants are given. Whether binding was seen depends on the method and setting.

By UniProt entry, the sequences of proteins in these tests, tags left out. Where a name states a change or a piece, a line headed by the entry shows the natural chain unless it says otherwise.
UniProt P16220: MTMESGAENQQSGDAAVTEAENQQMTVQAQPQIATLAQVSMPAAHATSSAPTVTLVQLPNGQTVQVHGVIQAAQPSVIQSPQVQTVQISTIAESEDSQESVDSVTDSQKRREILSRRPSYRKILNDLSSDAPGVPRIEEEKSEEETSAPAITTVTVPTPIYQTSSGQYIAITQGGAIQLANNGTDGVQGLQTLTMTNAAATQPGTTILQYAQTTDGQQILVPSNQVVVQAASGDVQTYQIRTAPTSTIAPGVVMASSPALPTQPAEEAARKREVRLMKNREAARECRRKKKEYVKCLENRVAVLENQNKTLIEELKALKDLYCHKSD
UniProt P63151: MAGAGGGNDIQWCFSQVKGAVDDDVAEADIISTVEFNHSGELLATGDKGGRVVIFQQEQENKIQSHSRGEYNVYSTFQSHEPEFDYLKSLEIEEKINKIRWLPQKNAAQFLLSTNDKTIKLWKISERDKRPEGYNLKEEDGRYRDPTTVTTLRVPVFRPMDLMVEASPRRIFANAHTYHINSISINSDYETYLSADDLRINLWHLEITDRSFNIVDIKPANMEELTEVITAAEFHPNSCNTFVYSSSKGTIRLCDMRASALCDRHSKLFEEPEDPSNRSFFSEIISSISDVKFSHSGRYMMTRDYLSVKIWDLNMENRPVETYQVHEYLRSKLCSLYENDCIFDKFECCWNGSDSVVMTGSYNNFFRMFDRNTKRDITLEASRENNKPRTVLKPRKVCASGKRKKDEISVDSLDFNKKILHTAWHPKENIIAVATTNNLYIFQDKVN

Biological target: GST-CREB (99–159) (UniProt P16220)
Test: pull-down; 12 μg GST-CREB (or GST-ATF1) on 5 μl glutathione resin; 100 μg Bα or B56γ1 (holoenzyme in Fig. 2C) in 50 μl of 25 mM Tris pH 8.0, 150 mM NaCl, 2 mM DTT, 1 mg/ml BSA, 30 min; washes with 0.1% Triton X-100; SDS-PAGE, Coomassie blue; both purified

binding: no binding (tested: 100 μg in 50 μl)
Substance: B55α subunit of PP2A (from UniProt P63151 1-447)
